In US20240083999A1:
Positions count from the first letter of the chain named. These are yes or no findings as the source states them, for the method shown. Some binding calls cover weakened binding; strength is not graded here.

The chains behind the UniProt entries cited, without tags or fusion partners. Where a name states a change or a piece, a line headed by the entry shows the natural chain unless it says otherwise.
UniProt P05231: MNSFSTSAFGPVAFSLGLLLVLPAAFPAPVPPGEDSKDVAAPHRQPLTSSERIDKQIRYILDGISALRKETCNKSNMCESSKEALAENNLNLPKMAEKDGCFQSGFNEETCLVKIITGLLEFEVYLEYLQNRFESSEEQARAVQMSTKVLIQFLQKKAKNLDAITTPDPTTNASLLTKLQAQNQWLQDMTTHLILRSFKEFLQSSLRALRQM

B1: XAX-C9 (VHH)
VHH: SGGGLVQPGGSLRLSCAASGFTLDYYAIGWFRQAPGKEREGVSCLSSSDRSTYYVDSVKGRFTISRDDDKNTAYLQMNSLKPEDTATYYCAAGTWDLKWGYNISACVGSYEYDYWGQGTQVTVSS
B2: XAX-H12 (VHH)
VHH: B1 VHH
B3: XAX-H9 (VHH)
VHH: B1 VHH with S1T
B4: hIL-6-binding VHH JYK-H9 (Trx/JYK-H9/E) (VHH, not shown: large carriers)
VHH: QLQLVETGGGLVQPGGSLRLSCAASGFTLDYYAIGWFRQAPGKEREGVSCLSSSDRSTYYVDSVKGRFTISRDDDKNTAYLQMNSLKPEDTATYYCAAGTWDLKWGYNISACVGSYEYDYWGQGTQVTVSS
B5: JYK-A8 (VHH)
VHH: B1 VHH with T52A, Y54A, V55I, D68G, D69A, A73V, T87V, G108R
B6: JYK-G1 (VHH)
VHH: SGGGLVQPGGSLRLSCAASGFTLDYYAVGWFRQAPGKEREGISCISSSDLKTYYTDSVKGRFTISRDNANNAVSLQMNSLKPEDTGVYYCAAGTWDLKFGYNISACVGSYEYDYWGQGTQVTVSS
B7: XAX-E6 (VHH)
VHH: B6 VHH with S1T
B8: hIL-6-binding VHH JYK-A1 (Trx/JYK-A1/E) (VHH, not shown: large carriers)
VHH: QLQLAETGGGLVQPGGSLRLSCAASGFTLDYYAVGWFRQAPGKEREGISCISSSDLKTYYADSVKGRFTISRDYAKSTVSLQMNSLKPEDTGVYYCAAGTWDLKFGYNISACVGSYEYDYWDQGTQVTVSS
B9: JYK-F6 (VHH)
VHH: B6 VHH with S1T, T55A, N68Y, N70K, N71S, A72T
B10: XAX-G8 (VHH)
VHH: B6 VHH with T55A, N70K, N71S, A72T
B11: JYK-G10 (VHH)
VHH: B6 VHH with T22A, T55A, N70K, N71S, A72T
B12: XAX-B7 (VHH)
VHH: TGGGLVQPGGSLRLSCAASGFTLDYYGIGWFRQAPGKEREGVSCMSSSDLKTYYADSVKGRFTISRDSAKNTVYLQMNSLKPEDTGVYYCAAGTWDLKFGYNITTCVRSSEYDYRGQGTQVTVSS
B13: XAX-H5 (VHH)
VHH: B12 VHH with L23S
B14: XAX-C2 (VHH)
VHH: TGGGGLVQPGGSLRLSCAASGFTLDYYGIGWFRQAPGKEREGVSCISSSDWSTYYADSVKGRFTISRDNAKNTVYLQMNSLKPEDTAVYYCAAGTWDLKFGYNRSNCVRSAEYDYWGQGTQVTVSS

The binders below were run against human interleukin 6 (hIL-6) (human) (UniProt P05231) (assay: re-screening of the VHH-display library for hIL-6 binding).

binding, binds:
B1, B2, B3, B4, B5, B6, B7, B8, B9, B10, B11, B12, B13, B14
